Data on one sequence can be found in paper PMC13534636.

The exact form of at least one protein or probe is not confirmed. For some assays here: At least one verdict rests on a figure or table, not on a statement of the authors.

One series deals with FUS + ETV5 + MEF2A. In words: EMSA. The note with it: FUS 300 nM, MEF2A 50 nM, ETV5 60-240 nM, smear at lower ETV5 than ETV5 alone; 20 mM HEPES-KOH pH 7.5, 5 mM MgCl2, 50 mM KCl, 10 mM DTT, 10% glycerol; 5 nM probe, 25 min at 25 C; 6% PAGE in 0.5x TBE; commercial protein; label: 5'-FAM on sense strand.
In the next series the test system is FUS + ETV1 + MEF2A. Nature of the series: EMSA. The note with it: FUS 300 nM, MEF2A 50 nM, ETV1 120 nM, results similar to ETV5; 20 mM HEPES-KOH pH 7.5, 5 mM MgCl2, 50 mM KCl, 10 mM DTT, 10% glycerol; 5 nM probe, 25 min at 25 C; 6% PAGE in 0.5x TBE; commercial protein; label: 5'-FAM on sense strand.

In the case of “TTTTAACGGCGTGGTTTGAATGTTGCACTGGGTCCACCTGCCTCTGTCTCCGGCTGCGGGGACGTTCGGA (double strand) [MRPL30 probe (WT)]”, the binding result in the series with FUS + ETV5 + MEF2A and with FUS + ETV1 + MEF2A was “binds” throughout.
